Results from the supplement of paper PMC3334620.
Over roughly 33,000 sequences, “E-score (-0.5 to 0.5)” has its median near -0.0014; the highest 2% begin near 0.25. The list shows a part of the results.

Biological target: T1, Cad1 (UniProt P24813)
T1 sequence: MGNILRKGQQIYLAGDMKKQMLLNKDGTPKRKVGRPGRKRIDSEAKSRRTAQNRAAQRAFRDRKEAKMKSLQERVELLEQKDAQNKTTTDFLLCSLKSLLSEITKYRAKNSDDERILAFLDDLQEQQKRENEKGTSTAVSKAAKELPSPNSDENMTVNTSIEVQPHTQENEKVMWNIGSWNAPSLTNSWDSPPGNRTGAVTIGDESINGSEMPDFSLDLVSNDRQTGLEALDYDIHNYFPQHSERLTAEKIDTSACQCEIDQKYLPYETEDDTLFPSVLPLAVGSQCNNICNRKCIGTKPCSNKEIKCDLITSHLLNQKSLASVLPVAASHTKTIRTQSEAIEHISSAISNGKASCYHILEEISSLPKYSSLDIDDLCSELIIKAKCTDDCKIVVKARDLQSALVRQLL
Assay: PBM E-score (8-mer binding enrichment) (E-score (-0.5 to 0.5)); higher = stronger / more preferred TF binding
Conditions: protein concentration: 100 nM; construct: GST-full length
Procedure: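 Universal 'all 10-mer' protein binding microarrays (Agilent AMADID 015681) probed with GST-tagged S. cerevisiae TFs (full-length or DBD) made by in vitro transcription/translation (PURExpress), about 100-200 nM. Bound TF was detected with fluorescent anti-GST. Each ungapped 8-mer (which stands for itself and its reverse complement) is scored by the PBM enrichment score (E-score), a modified Wilcoxon-Mann-Whitney statistic from -0.5 to +0.5, computed with the Universal PBM Analysis Suite. Scale: above 0.35 generally sequence-specific binding.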

Row | Sequence | PBM E-score
1 | CCACTCCG | 0.0604
2 | GATAGTCC | 0.111
3 | AACGATAC | 0.0534
4 | GCATCGCA | -0.216
5 | AATTAGAT | 0.252
6 | GCCGAAAC | 0.061
7 | CCACGTAA | -0.00447
8 | GCAATGCC | 0.0643
9 | CCTAAGAA | -0.0389
10 | GTCCCCCA | -0.361
11 | ACCGGATC | -0.0514
12 | ATATTCAA | 0.144
13 | GGACAAGA | -0.144
14 | ATTTTACG | 0.21
15 | CGAATGAG | 0.147
16 | AGACGAGA | 0.0185
17 | ATAGATCC | -0.015
18 | ACTGACAT | -0.0482
19 | CCTCTAAC | -0.0848
20 | GGCTAAAA | -0.0353
21 | ACGATCCA | -0.116
22 | TAATAACA | 0.15
23 | GCCATGTA | 0.107
24 | AACTTTAT | 0.0164
25 | AGACAAAG | 0.0401

Reprinted, entries 20–22
Row | Sequence | PBM E-score
20 | GGCTAAAA | -0.0353
21 | ACGATCCA | -0.116
22 | TAATAACA | 0.15

(list continues)

Row | Sequence | PBM E-score
26 | CAGTAATC | 0.164
27 | CCTAGGCG | -0.098
28 | TTACTAAA | 0.374
29 | GTATTCCA | -0.00627
30 | CGAAGTGC | 0.0965
31 | CGTGCAGC | 0.0278
32 | ATAATGGA | 0.0878
33 | ACACAACC | 0.00808
34 | GTCAGAAA | 0.0249
35 | CATGATTC | -0.0435
36 | GGCAAGTA | -0.149
37 | AATAAAAC | -0.0186
38 | ATACTATG | 0.00277
39 | ACATGCTG | 0.0632
40 | GGGGGCCA | -0.411
41 | ACCCATTC | -0.0248
42 | CTACACAC | -0.0573
43 | AATAAGCG | 0.117
44 | CCCGTAGC | -0.186
45 | AATTCACA | 0.138
46 | CAACGTTA | 0.168
47 | GACGGGGC | -0.0773
48 | CCTGGCAA | -0.0805
49 | GGCCTCGA | 0.0388
50 | AGCTCCAA | 0.0502

Row | Sequence | PBM E-score
51 | AGGCGCGA | 0.0546
52 | ATCAACCC | 0.0896
53 | GCTTCCCC | -0.337
54 | TCAAGGGA | -0.0776
55 | ATTACCGC | 0.066
56 | GTCACTAA | 0.145
57 | CATTTCCG | 0.0769
58 | TAGTCTCA | -0.0308
59 | AAGGGTGC | -0.0474
60 | ACCCCACA | -0.0413
61 | CTCGGAGC | 0.137
62 | AACCTACT | 0.107
63 | CAAAAAGA | 0.0675
64 | CGTTAGGC | -0.104
65 | ACCCAGAG | -0.171
66 | CTACGACA | 0.00715
67 | CCCGCCAG | -0.0572
68 | AGAGTTCA | -0.132
69 | CATTTGGA | 0.0851
70 | AGGGCTGG | 0.0297
71 | AACATATA | 0.0078
72 | CTAAGTTC | 0.0252
73 | CGGGGGGA | -0.484
74 | GACCCGTC | -0.231
75 | AATGTCTA | 0.0795

Row | Sequence | PBM E-score
76 | TTGCAAAA | 0.179
77 | GGAGATCC | -0.105
78 | CAAGCAAG | -0.156
79 | AATGTTAA | 0.141
80 | AGACCGCA | -0.157
81 | ACTGCGAT | 0.0409
82 | CACCGACC | -0.0907
83 | CCTTATGA | 0.146
84 | GGAGCGCA | -0.112
85 | CAAGTTAC | 0.00436
86 | CCTTTCAG | -0.0562
87 | GGACAGAC | 0.0236
88 | CGCGACAC | 0.0904
89 | ATAGGCGG | 0.119
90 | CGCTTCCA | 0.036
91 | GTTTGGAA | -0.0186
92 | ATTTTACC | 0.231
93 | CGTGAGCA | -0.0633
94 | CAATACCG | -0.0276
95 | ACTTCTCA | 0.0697
96 | GACAGTGC | 0.0176
97 | CGAGGAAG | -0.213
98 | AGTGCGTA | -0.0932
99 | GAAGGATC | -0.328
100 | ACCACGTA | -0.0327

Row | Sequence | PBM E-score
101 | GCGATTAA | 0.123
102 | CGTGTCAA | 0.083
103 | CAGTCCCG | -0.165
104 | CGTGCTAG | -0.0886
105 | GAGGCGTA | -0.0365
106 | AACTATAT | 0.176
107 | AGTAGCTG | 0.0399
108 | AAGATTTC | 0.0635
109 | ACCATTTG | 0.199
110 | ATCATCTG | 0.0139
111 | GAACTAAA | 0.0923
112 | AGCTTGAA | 0.0342
113 | TCAGACCA | -0.062
114 | GATGTGTA | -0.0278
115 | CCATTGGA | 0.00597
116 | CGACGGAC | 0.105
117 | AAAATGAA | 0.0129
118 | CTTTGCGC | 0.179
119 | CATTTCGC | -0.15
120 | ATCAAGCG | 0.0519
121 | AGATCTTA | 0.1
122 | GCGCATTA | 0.265
123 | CCGACGGC | -0.156
124 | CGTGATGC | -0.0888
125 | CGGGATGC | -0.137

Row | Sequence | PBM E-score
126 | CTTGCGCA | 0.093
127 | GTTACTCA | 0.182
128 | CCTTAACG | 0.0521
129 | AAATGCGG | 0.00807
130 | CACCACCA | 0.00941
131 | CGCTTACC | 0.168
132 | GCCACATA | 0.0201
133 | ACAATGTG | 0.0639
134 | GTTTGAAA | 0.113
135 | ACATGCGT | -0.0669
136 | ATGACGTC | 0.0734
137 | AATTGATG | 0.251
138 | AGTTCATG | 0.265
139 | CAATCAGC | 0.0656
140 | AACAGGTT | -0.0889
141 | CATGCGCC | 0.0597
142 | CCCAGCGC | -0.0801
143 | AATTGCAA | 0.131
144 | CGTCATGC | -0.0851
145 | ATCAATGG | -0.0702
146 | AACTGAGC | -0.203
147 | CCGATAGG | -0.00369
148 | AGACGTGA | 0.178
149 | AGACATGG | -0.103
150 | GTTTGTGA | -0.0375

Some values from the list:
For PBM E-score, AGACCGCA shows -0.157
For PBM E-score, ACCGGATC shows -0.0514
For PBM E-score, GGCCTCGA shows 0.0388
For PBM E-score, CCTCTAAC shows -0.0848
For PBM E-score, CGTGAGCA shows -0.0633
For PBM E-score, GTCACTAA shows 0.145

The results go on:

Row | Sequence | PBM E-score
151 | ACGAACGA | 0.0753
152 | AGAATATC | 0.0721
153 | AGTTGATC | 0.0893
154 | ACTGCCAA | 0.179
155 | AGGAGAAT | 0.0193
156 | TTCGCAAA | 0.198
157 | AACCCCTG | -0.263
158 | GCAACGAA | 0.275
159 | ATCTAAAC | -0.058
160 | AAGGTCTC | -0.109
161 | TGAAACCA | -0.00097
162 | CGCCATGA | 0.159
163 | TACTGTAA | 0.0474
164 | ATTGTCTC | 0.0923
165 | ACGACTGA | -0.203
166 | AGTAGGCG | 0.0214
167 | CTATAGTA | 0.165
168 | CAACTCGA | 0.175
169 | CACGCGCA | 0.0196
170 | AATAGCTG | 0.0055
171 | GGTGGGAA | -0.0423
172 | CCTCCGCC | -0.134
173 | ATTTCAAA | 0.137
174 | ACCCTCAA | -0.222
175 | GGGACCCA | -0.12

Row | Sequence | PBM E-score
176 | AATTTCCG | 0.24
177 | ATATCAGG | 0.00611
178 | ATCCTTGA | 0.0576
179 | CGAGATGC | -0.0402
180 | CCTCCCAG | -0.346
181 | CACAACGC | -0.0182
182 | AGGCCGTG | 0.0557
183 | AAGTAATT | 0.2
184 | ATTATTTC | 0.2
185 | AGCATACA | 0.0414
186 | GGTAGCAC | -0.264
187 | GTTTCGGA | 0.0462
188 | GAATGCGA | 0.064
189 | CTATCCAG | -0.0759
190 | AGTAGCTA | 0.0332
191 | GAGAGAGC | -0.283
192 | CGGCCGAA | 0.203
193 | CGGTGGAG | -0.0566
194 | CTCAAGCC | -0.0462
195 | GGGATCAA | 0.0428
196 | GACGGACA | 0.0727
197 | AGCCTTAT | 0.0233
198 | CATACCCA | -0.0323
199 | AGGGGACG | -0.189
200 | AAGCCCTT | -0.0922

Row | Sequence | PBM E-score
201 | CTGGTTCA | 0.0573
202 | CATTTATA | 0.021
203 | CGACACTA | -0.0495
204 | AGAACAAC | -0.0123
205 | GCCGTGGA | -0.222
206 | AATTGAAG | -0.0835
207 | AGAAGCGC | 0.0594
208 | ACTAGGAG | -0.121
209 | TAGAAAGA | -0.1
210 | GACGCAGC | 0.0821
211 | AATAGGAG | -0.229
212 | AAGTGTAG | 0.0989
213 | CGGTCCGA | -0.0178
214 | ACTCTTAC | 0.242
215 | CCGGTCGC | -0.0192
216 | GCCCAGAC | -0.201
217 | CCTGAAAA | 0.00612
218 | ATAGTGAT | 0.126
219 | GTGTACGA | 0.069
